Measurements from PubChem BioAssay AID588590 (National Center for Advancing Translational Sciences (NCATS), 2011).
Where “and” joins values, the source holds several entries; their conditions need not be identical. Equal entries are not always repeated. Among all 390,000 compounds or so, about 4,000 (1%) were called active. Inconclusive means that the source gave no clear call. Such entries were picked first, then a sample of the others. The call rests on the fitted dose curve; in most records, active means well fitted inhibition curve with a large enough effect; inconclusive means small, poorly fitted or top-dose-only effect, or another doubt; inactive means no such curve, though single readings can be large or run the other way. Potencies of inconclusive entries are doubtful fits and often do not repeat.

Amino acid sequences for entries named in this document (tags omitted). A change or cut given only in a name is not applied to a line headed by its entry.
UniProt Q9UNA4: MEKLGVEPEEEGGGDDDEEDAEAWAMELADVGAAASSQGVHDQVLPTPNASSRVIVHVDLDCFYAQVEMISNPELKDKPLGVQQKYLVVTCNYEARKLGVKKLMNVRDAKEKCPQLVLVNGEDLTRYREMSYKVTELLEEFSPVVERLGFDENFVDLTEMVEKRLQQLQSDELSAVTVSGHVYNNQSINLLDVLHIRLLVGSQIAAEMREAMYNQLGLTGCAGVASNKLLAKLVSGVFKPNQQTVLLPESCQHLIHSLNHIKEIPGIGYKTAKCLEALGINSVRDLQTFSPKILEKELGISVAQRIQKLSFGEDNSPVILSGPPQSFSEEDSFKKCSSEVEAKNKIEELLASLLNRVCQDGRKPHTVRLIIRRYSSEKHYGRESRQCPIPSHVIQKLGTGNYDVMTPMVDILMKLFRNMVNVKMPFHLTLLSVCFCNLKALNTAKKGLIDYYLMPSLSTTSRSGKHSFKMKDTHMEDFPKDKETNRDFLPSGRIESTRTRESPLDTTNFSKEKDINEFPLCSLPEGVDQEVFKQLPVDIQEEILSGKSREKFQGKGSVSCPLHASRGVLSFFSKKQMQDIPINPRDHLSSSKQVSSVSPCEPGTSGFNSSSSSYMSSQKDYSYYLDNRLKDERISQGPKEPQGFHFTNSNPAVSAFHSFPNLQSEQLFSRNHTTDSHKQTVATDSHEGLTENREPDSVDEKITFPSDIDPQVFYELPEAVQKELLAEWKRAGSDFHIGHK

biological target: DNA polymerase iota (Homo sapiens) (UniProt Q9UNA4); assay: qHTS for Inhibitors of Polymerase Iota; settings: Pol iota fluorescent replication assay, 10 min; series mostly up to 115 µM
Procedure, shortened: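 Fluorescent replication assay read twice, at 0 min and 10 min after adding 50 nM (final) substrate. Enzyme (10 nM) and compounds were first incubated 15 min at room temperature; enzyme-free buffer wells were negative controls.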
Potency means the concentration at half of the fitted maximal effect.

Structure (SMILES) | Potency
O=C(O)/C=C/c1nc(-c2ccccc2)n2ccccc12 | inconclusive: 28.2 µM [inhibitor, full curve, poor fit]
CC1(C)CC(=O)C2=C(C1)Nc1ncnn1C2c1ccccn1 (stereo not given) | inconclusive: 3.16 µM [inhibitor, single point]
C/C(=N\Nc1nc2ccccc2[nH]1)c1ccc([N+](=O)[O-])cc1 | inconclusive: 25.1 µM [inhibitor, single point]
Cc1cc(C)cc(NC(=O)COC(=O)c2n[nH]c3ccccc23)c1 | inconclusive: 100 µM [inhibitor, single point]
CN1CCN(CCCN2c3ccccc3Sc3ccc(Cl)cc32)CC1 | inconclusive: 2.82 µM [inhibitor, partial curve, poor fit] and inconclusive: 11.2 µM [inhibitor, partial curve, poor fit]
Cc1ccc(C)c(Cn2nnc(C(=O)NCc3ccccc3)c2N)c1 | inconclusive: 89.1 µM [inhibitor, single point]
CCOc1ccc(C(=O)NCC(=O)OCC(=O)N(C)CC(=O)Nc2ccccc2CC)cc1OCC | inactive
CC(OC(=O)CNS(=O)(=O)c1ccc(C#N)cc1)C(=O)Nc1ccc(Cl)cn1 (stereo not given) | inactive
CCOc1ccc(CNC(=O)c2sc3nc(C)cc(C)c3c2-n2cccc2)cc1 | inactive
Cc1ccc(NC(=O)CN2C(=O)CCc3cc(S(=O)(=O)N4CCOCC4)ccc32)c(C)c1 | inconclusive: 89.1 µM [inhibitor, single point]
COc1ccc(-n2cc(-c3ccccc3)c3c(SC(C)C(C)=O)ncnc32)cc1 (stereo not given) | inconclusive: 89.1 µM [inhibitor, partial curve]
CCOc1ccc(OCC)c(NC(=O)CN2CCN(C(=O)c3ccco3)CC2)c1 | inconclusive: 6.31 µM [inhibitor, partial curve, poor fit]
COc1ccc(C(=O)Nc2cccc(/C=C/c3nc4ccccc4c(=O)[nH]3)c2)cc1 | inconclusive: 14.1 µM [inhibitor, full curve, poor fit]
CN1/C(=C\C(=O)c2ccco2)C(C)(C)c2ccccc21 | inconclusive: 22.4 µM [inhibitor, partial curve]
Cc1cc(C(=O)O)c(C)n1-c1ccccc1 | inactive
Cc1cc(C)c2c(=O)c(C#N)coc2c1 | inconclusive: 31.6 µM [inhibitor, full curve, poor fit]
CCOC(=O)C1=C(COC(=O)c2ccc([N+](=O)[O-])o2)NC(=O)NC1C (stereo not given) | inconclusive: 44.7 µM [inhibitor, partial curve]
c1ccc(CNn2nnnc2-c2ccccc2)cc1 | inconclusive: 79.4 µM [inhibitor, single point]
CC1CCC(NC(=O)c2ccc3c(c2)N(Cc2cccc(F)c2)C(=O)c2ccccc2S3)CC1 (stereo not given) | active: 89.1 µM
COc1ccc(NC(=O)Nc2ccc(OCc3ccccc3)cc2)cn1 | inactive

An excerpt from above in order of heavy-atom count, high to low.
Structure (SMILES) | Potency
COc1ccc(C(=O)Nc2cccc(/C=C/c3nc4ccccc4c(=O)[nH]3)c2)cc1 | inconclusive: 14.1 µM [inhibitor, full curve, poor fit]
Cc1ccc(C)c(Cn2nnc(C(=O)NCc3ccccc3)c2N)c1 | inconclusive: 89.1 µM [inhibitor, single point]
c1ccc(CNn2nnnc2-c2ccccc2)cc1 | inconclusive: 79.4 µM [inhibitor, single point]

(continued)

Structure (SMILES) | Potency
COc1ccc(S(=O)(=O)NCc2ccncc2)cc1NC(=O)c1ccccc1F | inconclusive: 50.1 µM [inhibitor, partial curve]
CCc1ccc(OCc2ccc(C(=O)OC)o2)cc1 | inconclusive: 12.6 µM [inhibitor, full curve, poor fit]
Cc1cccc(NC(=O)C2CCN(C(=O)[C@@H]3Cc4ccccc4CN3)CC2)c1 | inconclusive: 31.6 µM [inhibitor, full curve, poor fit]
O=C(CSc1nnc(C2CCCCC2)n1-c1ccccc1)NCc1ccco1 | inconclusive: 50.1 µM [inhibitor, partial curve, poor fit]
COc1cc(C(=O)NC(=S)NC(C)C)cc(OC)c1OC | inactive
CC(/C=C1\SC(=S)N(CC(=O)O)C1=O)=C\c1ccccc1 | inconclusive: 25.1 µM [inhibitor, full curve]
CCC(Sc1ccc2nnc(-c3cccnc3)n2n1)C(=O)O (stereo not given) | inconclusive: 22.4 µM [inhibitor, partial curve, poor fit] and inconclusive: 89.1 µM [inhibitor, partial curve, poor fit]
O=C(Nc1ccc(C(F)(F)F)cc1)C1CCCN1S(=O)(=O)c1cccc2cccnc12 (stereo not given) | inconclusive: 79.4 µM [inhibitor, partial curve, poor fit]
O=[N+]([O-])c1ccc2c(c1)C=CC2 | active: 79.4 µM
O=C(c1ccc(COc2ccccc2Cl)o1)N1CCN(Cc2ccc3c(c2)OCO3)CC1 | inconclusive: 5.01 µM [inhibitor, full curve, poor fit]
CC(=O)N1c2ccccc2C(C)CC12CCCCC2 (stereo not given) | inconclusive: 39.8 µM [inhibitor, single point]
CCc1nc(N)c(C#N)c(-c2ccc(O)c(OC)c2)c1C | inactive
O=Cc1ccccc1OCCN1CCCC1=O | inconclusive: 22.4 µM [inhibitor, partial curve, poor fit]
COc1ccc(C2C(C(=O)Nc3ccccc3)=C(C)Nc3nc(-c4ccccc4)nn32)cc1OC (stereo not given) | inconclusive: 100 µM [inhibitor, partial curve, poor fit]
CCc1ccccc1NC(=O)CSC1=C(C#N)C(c2ccc(O)c(OC)c2)C2=C(CCCC2=O)N1 (stereo not given) | inconclusive: 39.8 µM [inhibitor, single point]
Cn1c2cc(Br)sc2c2cnn(Cc3ccc(F)cc3F)c(=O)c21 | inactive
CCN(C[C@H]1N[C@@](C)(C(=O)OC)[C@H]2C(=O)N(C)C(=O)[C@@H]12)C(=O)COc1ccccc1 | inconclusive: 35.5 µM [inhibitor, full curve, poor fit]
Cc1cc(C)c2c(CC(=O)Nc3nnc(C(C)C)s3)coc2c1 | inconclusive: 89.1 µM [inhibitor, single point]
Cc1ccc(C)c(NC(=S)N(Cc2ccc(Cl)cc2)Cc2ccc(C(=O)O)cc2)c1 | inconclusive: 100 µM [inhibitor, partial curve, poor fit]
COC(=O)c1cc(NC(=O)c2cc(C(C)(C)C)nn2Cc2cccc(C)c2)ccc1N1CCOCC1 | inconclusive: 35.5 µM [inhibitor, partial curve, poor fit]
